Test system: ‘Fina Sodea’ Clementine mandarin trees
Settings: 200 trees per acre, 3-year average FOB prices

Nc1ncnc2c1ncn2[C@@H]1O[C@H](CO)[C@@H](O)[C@H]1O [Ado, 9-beta-D-adenosine]
Fruit value (cumulative income), Jumbo: 1149.50 a US$/acre
Fruit value (cumulative income), L + J + Ma: 3995.60 a US$/acre
Fruit value (cumulative income), Large: 2584.10 a US$/acre
Fruit value (cumulative income), Mammoth: 262.10 US$/acre
Fruit value (cumulative income), Medium: 2522.40 US$/acre
Fruit value (cumulative income), Small: 1497.80 US$/acre
Fruit value (cumulative income), Totally (sum of small to mammoth): 8015.80 US$/acre

From US10292393B2, “Mitigation of alternate bearing” (The Regents of the University of California, priority 2009, dated 2019)
